Experimental data from patent publication US20190055278 (published 2019).
Values joined by “and” are separate entries in the source; they are usually repeats but may differ in a detail not shown here. Equal entries are not always repeated.

Assay: general procedure: Fmoc solid-phase peptide synthesis; CTC resin (1.6 mmol/g); DIPCDI (DIC)/HOBt
Conditions: for crude HPLC purity / crude purity (method not given) / final HPLC purity: HPLC

Substance	oxidative folding yield (oxidative folding step)	crude HPLC purity (oxidative folding step, run 1)	crude purity (method not given) (oxidative folding step, run 1)	final HPLC purity (oxidative folding step, run 1)	crude HPLC purity (oxidative folding step, run 2)	crude purity (method not given) (oxidative folding step, run 2)	final HPLC purity (oxidative folding step, run 2)	crude purity (method not given) (whole synthesis)
Cys-Cys-Glu^-Tyr^-Cys^-Cys^-Asn^-Pro^-Ala^-Cys^-Thr^-Gly^-Cys^-Tyr	>50% and 83.2%	˜40-50%	60%	>99.0%	˜60-70%	69.17%	>99%	–
H-Cys(Phacm)-Cys(Phacm)-Glu-Tyr-Cys(Phacm)-Cys(Phacm)-Asn-Pro-Ala-Cys(Phacm)-Thr-Gly-Cys(Phacm)-Tyr-OH.TFA	–	–	–	–	–	–	–	43.47%
